PubChem BioAssay AID1508588 – Peter MacCallum Cancer Centre – 2020
Assay: 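Which gene losses make BRAF-mutant melanoma cells more responsive to vemurafenib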 (primary screen). Cell system: human WM266.4 melanoma cells (BRAF V600 mutant). Knock-down reagent: siRNA pool against human genes, 40 nM. Time to read-out: 96 h from transfection to read-out. Challenge: vemurafenib 300 nM (about IC25), added 48 h after transfection, for 48 h; comparison arm got DMSO vehicle only. Detection: 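Cell gain (DAPI nuclei at end minus before drug, mean of two replicates) and medium lactate by absorbance per cell, both as ratio to non-targeting siRNA, also grouped into fold-change classes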. Direction: cell gain with vemurafenib: higher = more cell gain than with non-targeting siRNA; lactate per cell with vemurafenib: higher = more lactate made per cell. Call rule: 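a knock-down counts as enhancing when its fold-change classes with vehicle and with vemurafenib, taken together, show a stronger drug effect on cell gain or lactate per cell; exact class pairs not stated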. Meaning of the calls: active = enhances vemurafenib effect; inactive = no enhancement seen.
Here is one part, drawn at random, of about 18,000 deposited reagents. 790 of them (4.4%) count as active. 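Calls rest on a combination of fold-change classes in drug and vehicle arms, not all shown here.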 A number with no mark means an inactive call. Reagents against one gene are numbered here.

gene	reagent	cell gain with vemurafenib	lactate per cell with vemurafenib
MEMO1 (mediator of cell motility 1)	1	0.69	0.58
C6 (complement C6)	1	0.96	1.48
PIMREG (PICALM interacting mitotic regulator)	1	0.47	0.92
LINC00452 (long independently transcribed non-coding RNA 452)	1	0.81	0.74
TDRD9 (tudor domain containing 9)	1	0.53	0.64
KRT9 (keratin 9)	1	0.36	1.69
SPAG17 (sperm associated antigen 17)	1	0.88	0.68
YARS1 (tyrosyl-tRNA synthetase 1)	1	0.64	0.48
ZNF561 (zinc finger protein 561)	1	1.09 (active)	0.66
CA3 (carbonic anhydrase 3)	1	0.36	1.08
GSPT2 (G1 to S phase transition 2)	1	0.55	1.51
FOXD4L4 (forkhead box D4 like 4)	1	0.2	1.84
CLEC4C (C-type lectin domain family 4 member C)	1	0.42	1.94
MDH1B (malate dehydrogenase 1B)	1	0.06	2.96
TBC1D8 (TBC1 domain family member 8)	1	0.17	1.14
NRSN1 (neurensin 1)	1	0.87	1.23
PHKG1 (phosphorylase kinase catalytic subunit gamma 1)	1	0.53 (active)	0.64
NOL9 (nucleolar protein 9)	1	0.48	0.9
ETV2 (ETS variant transcription factor 2)	1	0.85	1.36
PRAG1 (PEAK1 related, kinase-activating pseudokinase 1)	1	0.46	1.27
GRPEL2 (GrpE like 2, mitochondrial)	1	0.83	0.85
CAPN1 (calpain 1)	1	0.63	1.52
RPS6KA6 (ribosomal protein S6 kinase A6)	1	0.64	1.23
RBM4B (RNA binding motif protein 4B)	1	0.02	0.8
GPR146 (G protein-coupled receptor 146)	1	0.31	0.64
NHLH2 (nescient helix-loop-helix 2)	1	0.52	0.79
ZNF485 (zinc finger protein 485)	1	0.85	0.82
IGFL1 (IGF like family member 1)	1	0.94	0.68
COA1 (cytochrome c oxidase assembly factor 1)	1	0.88	0.5
CCDC88C (coiled-coil and HOOK domain protein 88C)	1	1.02	1.66
ZNF493 (zinc finger protein 493)	1	0.58	0.6
ABHD12 (abhydrolase domain containing 12, lysophospholipase)	1	0.61	0.7
CHST4 (carbohydrate sulfotransferase 4)	1	0.61	0.7
EEF1AKMT3 (EEF1A lysine methyltransferase 3)	1	0.39	1.41
ZNF202 (zinc finger protein 202)	1	0.18	0.96
TNF (tumor necrosis factor)	1	0.36	1.14
SOX10 (SRY-box transcription factor 10)	1	0.24	2.17
IL18R1 (interleukin 18 receptor 1)	1	0.45	0.62
PCF11 (PCF11 cleavage and polyadenylation factor subunit)	1	-0.07	1.36
H1-4 (H1.4 linker histone, cluster member)	1	0.96	0.52
UBL5 (ubiquitin like 5)	1	-0.03	2.09
ZNF512B (zinc finger protein 512B)	1	0.33	0.5
MGLL (monoglyceride lipase)	1	0.64	0.92
CIBAR2 (CBY1 interacting BAR domain containing 2)	1	0.85	1.07
NRIP2 (nuclear receptor interacting protein 2)	1	0.47	1.56
INSM2 (INSM transcriptional repressor 2)	1	1.11	1.2
MAP4K4 (mitogen-activated protein kinase kinase kinase kinase 4)	1	1.43	0.56
POR (cytochrome p450 oxidoreductase)	1	0.48	1.25
RAB14 (RAB14, member RAS oncogene family)	1	1.05	0.56
CYP3A7 (cytochrome P450 family 3 subfamily A member 7)	1	0.7	1.41
P2RY4 (pyrimidinergic receptor P2Y4)	1	0.24	1.69
TMPRSS12 (transmembrane serine protease 12)	1	0.75	1.04
OR3A3 (olfactory receptor family 3 subfamily A member 3)	1	0.74	1.23
TCP10L (t-complex 10 like)	1	0.79	0.34
RNF170 (ring finger protein 170)	1	1.01	1.14
BLVRB (biliverdin reductase B)	1	0.65	0.98
PDXK (pyridoxal kinase)	1	0.94	0.74
TTC22 (tetratricopeptide repeat domain 22)	1	0.27	2.41
C4orf46 (chromosome 4 open reading frame 46)	1	0.38	1.69
HSFY2 (heat shock transcription factor Y-linked 2)	1	0.71	0.74
TEDDM1 (transmembrane epididymal protein 1)	1	0.44	1.17
PDE1B (phosphodiesterase 1B)	1	0.63	0.46
ZNF385D (zinc finger protein 385D)	1	0.56	1.38
OTUD6A (OTU deubiquitinase 6A)	1	0.08	1.84
SFTPA1 (surfactant protein A1)	1	0.13	1.61
SFTPA1 (surfactant protein A1)	2	0.2	0.84
DNA2 (DNA replication helicase/nuclease 2)	1	0.11	1.07
ATP5MK (ATP synthase membrane subunit k)	1	0.86	0.99
RANBP9 (RAN binding protein 9)	1	0.36	1.91
SLC39A1	1	0.66	0.31
FOXP3 (forkhead box P3)	1	0.24	1.75
CUBN (cubilin)	1	0.8	0.84
ACSBG1 (acyl-CoA synthetase bubblegum family member 1)	1	0.79	1.08
KCNJ12 (potassium inwardly rectifying channel subfamily J member 12)	1	0.64	1.64
ARHGAP20 (Rho GTPase activating protein 20)	1	0.33	1.72
FNDC7 (fibronectin type III domain containing 7)	1	1.08	0.62
ME2 (malic enzyme 2)	1	0.83	0.52
ATAD1 (ATPase family AAA domain containing 1)	1	0.53	0.82
KLHL6 (kelch like family member 6)	1	0.62	1.32
COG6 (component of oligomeric golgi complex 6)	1	1.06	1.6
TPP2 (tripeptidyl peptidase 2)	1	1.03	0.62
FBXO25 (F-box protein 25)	1	0.93	0.72
WASH5P (WASP family homolog 5, pseudogene)	1	1.15	1.18
MERTK (MER proto-oncogene, tyrosine kinase)	1	0.81	1.48
